Earlier results as cited in US20050070510A1, “Substituted tetracycline compounds as synergistic antifungal agents” (Paratek Pharmaceuticals, Inc., priority 2001, published 2005).
At least one compound was matched to its structure with a doubt left.

Test system: fungi
Details: cited from earlier work; for antifungal activity alone and in synergy with amphotericin B: literature; for synergistic activity: with amphotericin B

Structure (SMILES)	antifungal activity alone and in synergy with amphotericin B	synergistic activity
C[C@H]1c2cccc(O)c2C(=O)C2=C(O)[C@]3(O)C(=O)C(C(N)=O)=C(O)[C@@H](N(C)C)[C@@H]3[C@@H](O)[C@@H]21 [doxycycline]	limited antifungal activity	low synergistic activity
CN(C)c1ccc(O)c2c1C[C@H]1C[C@H]3[C@H](N(C)C)C(O)=C(C(N)=O)C(=O)[C@@]3(O)C(O)=C1C2=O [minocycline]	limited antifungal activity	low synergistic activity
